Measured values published in patent US20190185550A1 (HEFEI LIFEON PHARMACEUTICAL, published 2019).
These are yes or no findings as the source states them, for the method shown. Some binding calls cover weakened binding; strength is not graded here. Tags and fused reporters may be left off the sequences shown.

The chains behind the UniProt entries cited, without tags or fusion partners. Where a name states a change or a piece, a line headed by the entry shows the natural chain unless it says otherwise. A line that says so, or that is headed by a name, gives the form on record, which may keep a tag or linker.
FN(7B89), recombinant fibronectin fragment of domains 7, ED-B, 8 and 9 with 6xHis tags (P02751, form named): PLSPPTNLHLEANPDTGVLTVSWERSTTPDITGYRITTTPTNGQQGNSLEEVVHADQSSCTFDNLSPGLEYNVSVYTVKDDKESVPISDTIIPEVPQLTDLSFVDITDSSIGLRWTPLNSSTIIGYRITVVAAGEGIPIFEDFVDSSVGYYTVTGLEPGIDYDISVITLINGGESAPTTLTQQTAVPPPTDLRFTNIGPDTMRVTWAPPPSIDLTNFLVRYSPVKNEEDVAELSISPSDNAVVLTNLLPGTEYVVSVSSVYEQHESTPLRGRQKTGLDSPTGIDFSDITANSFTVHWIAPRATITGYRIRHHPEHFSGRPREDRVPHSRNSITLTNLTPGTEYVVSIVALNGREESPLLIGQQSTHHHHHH

Columns and labels:
[1] = target: FN(7B89), recombinant fibronectin fragment of domains 7, ED-B, 8 and 9 with 6xHis tags (human) (UniProt P02751); experiment: ELISA, coated antigen, anti-human IgG-HRP
[2] = target: FN(7B89), recombinant fibronectin fragment of domains 7, ED-B, 8 and 9 with 6xHis tags (human) (UniProt P02751); experiment: ELISA on coated antigen, antibody B5 as primary antibody, HRP-labeled rabbit anti-human IgG as secondary antibody, OD450
[3] = target: FN(7B89), recombinant fibronectin fragment of domains 7, ED-B, 8 and 9 with 6xHis tags (human) (UniProt P02751); experiment: ELISA on coated FN(7B89) after incubation of B5-IgG1Fc in Balb/c mouse plasma at 37 C, HRP-labeled rabbit anti-human IgG as secondary antibody, OD450 given relative to the 0 hr standard

Measured: binding

B1: antibody B5 (humanized single-chain antibody against the ED-B domain, expressed as a fusion with the Fc of human IgG1) (Fc fusion)
scFv: EVQLLESGGGLVQPGGSLRLSCAASGFTFSSYAMSWVRQAPGKGLEWVSRISPSGSSTYYADSVKGRFTISRDNSKNTLYLQMNSLRAEDTAVYYCARHTAPLFDYWGQGTLVTVSSGGGGSGGGGSGGGGSSEIVLTQSPGTLSLSPGERATLSCRASQSVSSSYLAWYQQKPGQAPRLLIYKASNLATGIPDRFSGSGSGTDFTLTISRLEPEDFAVYYCQQGRHTPPTFGQGTKVEIK
notes: also called B5-IgG1Fc; single-chain antibody B5; not shown: Fc fragment of the constant region of human IgG1, fused in frame after the scFv (pCI-neo vector); limits and junction no
binds: all assays above
